In patent US20180064825A1 (INSERM INSTITUT NATIONAL DE LA SANTE ET DE LA RECHERCHE …, published 2018):
Results are given in words; binding and its absence hold for the method and conditions named. Some results given as binding are weak or reduced against the parent protein; the word gives no strength.

By UniProt entry, the sequences of proteins in these tests, tags left out. Residues count along the entry.
UniProt Q9NZQ7, residues 19-290: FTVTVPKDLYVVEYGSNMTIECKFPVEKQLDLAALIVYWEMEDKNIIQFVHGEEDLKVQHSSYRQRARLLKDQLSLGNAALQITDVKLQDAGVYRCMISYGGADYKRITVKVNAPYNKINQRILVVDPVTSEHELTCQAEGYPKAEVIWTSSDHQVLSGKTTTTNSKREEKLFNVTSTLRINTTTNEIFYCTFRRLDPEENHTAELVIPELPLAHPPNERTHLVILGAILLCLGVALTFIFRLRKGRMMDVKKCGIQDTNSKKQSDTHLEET

Tests used:
[1] = biological target: human PD-L1 (Programmed Cell Death 1 Ligand 1) (human) (UniProt Q9NZQ7); test: binding and internalization time course on MDA-MB-231 cells, 75 pM ^111In-PD-L1.3.1 at 37 °C, acid wash to separate the membrane-bound from the internalized fraction, non-specific part (17 nM unlabeled PD-L1.3.1) subtracted, gamma counter
[2] = biological target: human PD-L1 (Programmed Cell Death 1 Ligand 1) (human) (UniProt Q9NZQ7); test: summary of the in vitro cell binding assays
[3] = biological target: human PD-L1 (Programmed Cell Death 1 Ligand 1) (human) (UniProt Q9NZQ7); test: heading of the in vitro results (radioligand binding to breast cancer cells)
[4] = biological target: human PD-L1 (Programmed Cell Death 1 Ligand 1) (human) (UniProt Q9NZQ7); test: radioligand cell binding, 32 pM ^111In-PD-L1.3.1, 4 h, gamma counter; non-specific binding determined with 1,000-fold excess of unlabeled antibody
[5] = biological target: human PD-L1 (Programmed Cell Death 1 Ligand 1) (human) (UniProt Q9NZQ7); test: saturation binding / Scatchard analysis on cells, 3-3000 pM ^111In-PD-L1.3.1 in 1 ml, 4 h on ice, non-specific binding (100 nM PD-L1.3.1) subtracted; the panel does not name the cell line (MDA-MB-231 cells were used in subsequent binding assays)
[6] = biological target: human PD-L1 (Programmed Cell Death 1 Ligand 1) (human) (UniProt Q9NZQ7); test: radioligand binding to confluent breast cancer cells in six-well plates, 32 pM ^111In-PD-L1.3.1, 4 h at 37 °C or on ice, non-specific binding (1,000-fold excess of unlabeled PD-L1.3.1) subtracted, gamma counter
[7] = biological target: human PD-L1 (Programmed Cell Death 1 Ligand 1) (human) (UniProt Q9NZQ7); test: competition on MDA-MB-231 cells: increasing unlabeled PD-L1.3.1 against 20 pM ^111In-PD-L1.3.1, 4 h on ice, gamma counter

Measured: binding

B1: ^111In-DTPA-PD-L1.3.1 (antibody, V domains shown)
VH: EVQLQQSGTELVKPGASVKLSCTTSGFNIQDTYMHWVKQRPEQGLEWIGWIDPANGNTKYDPKFQGKATIIADTSSNTAYLQLRGLTSEDTAVYYCARSGVSTAHFDYWGQGTTLTVSS
VL: QIVLSQSPAILSASPGEKVTMTCRASSSVSFMHWYQQKPGSSPKPWIYATSNLASGVPTRFSGSGSGTSYSLTLSRVEAEDAATYYCQQWSSYPRTFGGGTKLEIK
modifications: ITC-DTPA conjugated and chelating ^111In; residues and chain not stated
binds: [1] | [2] | [3] | [4] | [5] | [6]

B2: PD-L1.3.1 antibody (murine monoclonal IgG1, unlabeled) (antibody, V domains shown)
VH: EVQLQQSGTELVKPGASVKLSCTTSGFNIQDTYMHWVKQRPEQGLEWIGWIDPANGNTKYDPKFQGKATIIADTSSNTAYLQLRGLTSEDTAVYYCARSGVSTAHFDYWGQGTTLTVSS
VL: QIVLSQSPAILSASPGEKVTMTCRASSSVSFMHWYQQKPGSSPKPWIYATSNLASGVPTRFSGSGSGTSYSLTLSRVEAEDAATYYCQQWSSYPRTFGGGTKLEIK
notes: also called PD-L1.3.1 mAb; unlabeled PD-L1.3.1
binds: [7]
